The exact form of at least one protein or probe is not confirmed. For some assays here: No signal at the amounts used counts as a negative. Where a protein sequence is shown, tags need not be part of it. For some assays here: Weaker means in comparison with the reference protein, sequence or condition of that experiment. For some assays here: At least one verdict rests on a figure or table, not on a statement of the authors.
Legend:
[1] = biological target: T1, MPND (fragment used in EMSA/MST not given) (Mus musculus) (UniProt Q3TV65); test: EMSA, MST; settings: EMSA: 20 mM HEPES pH 7.2, 100 mM NaCl, 2 mM DTT, 0.1% NP-40, 20 uM protein, 5 uM DNA, on ice, recombinant protein, protein details: His6 or GST tag, TEV-removed, label: FAM
T1 sequence (looked up, limits assumed): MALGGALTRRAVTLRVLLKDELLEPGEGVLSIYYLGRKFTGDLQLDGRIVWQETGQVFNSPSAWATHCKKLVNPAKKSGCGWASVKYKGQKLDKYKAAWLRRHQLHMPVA

[2] = biological target: T1, MPND (fragment used in EMSA/MST not given) (Mus musculus); test: EMSA; settings: EMSA: 20 mM HEPES pH 7.2, 100 mM NaCl, 2 mM DTT, 0.1% NP-40, 20 uM protein, 5 uM DNA, on ice, recombinant protein, protein details: His6 or GST tag …, label: FAM
[3] = biological target: T1, MPND (fragment used in EMSA/MST not given) (Mus musculus); test: competition with a labelled probe; settings: unlabeled dsDNA competes with FAM-dsDNA1; EMSA: 20 mM HEPES pH 7.2, 100 mM NaCl, 2 mM DTT, 0.1% NP-40, 20 uM protein, 5 uM DNA, on ice; recombinant protein; protein details: His6 or GST tag, TEV-removed; label: FAM
[4] = biological target: T1, MPND (fragment used in EMSA/MST not given) (Mus musculus); test: MST; settings: MST: 20 mM HEPES pH 7.2, 100 mM NaCl, 0.1% NP-40, 22 C, recombinant protein, protein details: His6 or GST tag, TEV-removed, label: FAM
[5] = affinity falls with number of mismatched bases
[6] = affinity falls with number of mismatches

“AGCAACAGAAGAGGATCT (double strand) [6mA dsDNA 18 bp]”: binds ([1]; 6mA did not affect binding, N6-methyladenine, position not readable in the material).

“AGCAACAGAAGAGGATCT (double strand) [dsDNA 18 bp]”: binds ([1]; no obvious effect of length).

“TCAGCAACAGAAGAGGATCTC / GAGATCCTCTGTTGCTGA [bulge 3]”: binds more weakly [1, 5].

“TCAGCAACAGAAGAGGATCTC / GAGATCCGAGGAGTGGGCTGA [bubble 9 (9 mismatches)]”: binds more weakly [1, 6].

“TCAGCAACAGAAGAGGATCTC / GAGATCCGTTGCTGA [bulge 6]”: binds more weakly [1, 5].

“TCAGCAACAGAAGAGGATCTC / GAGATCCGAGGAGGTTGCTGA [bubble 6 (6 mismatches)]”: binds more weakly [1, 6].

In the case of “TCAGCAACAGAAGAGGATCTC (double strand) [dsDNA 21 bp]”, the binding result [2] is reported as “binds”, the binding result [3] is reported as “binds” and the Kd [4] is reported as 1500 nM.

“GCAACAGAAGAGGAT (double strand) [dsDNA 15 bp]”: binds ([1]; no obvious effect of length).

“TCAGCAACAGAAGAGGATCTC / GAGATCCTCTGAGGTTGCTGA [bubble 3 (3 mismatches)]”: binds more weakly [1, 6].

“GATGCAAGCATCAGCAACAGAAGAGGATCTCAGGTGCAGCGC (double strand) [dsDNA 42 bp]”: binds ([1]; no obvious effect of length).

TCAGCAACAGAAGAGGATCTC [ssDNA 21 nt]: no binding ([2]; single-stranded DNA); no binding ([4]; single-stranded DNA).

— paper PMC9963953, “Structures of MPND Reveal the Molecular Recognition of Nucleosomes”
